PubChem BioAssay AID652243, Drosophila RNAi Screening Center – 2013
In all, the deposit lists about 24,000 reagents; below is a random part of those with a known target gene and a result. Of all reagents, 246 (1%) got an active call. 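Plates not normalised; calls are printed but the firefly/Renilla ratio behind them is not deposited; fold cut for lowering reported inconsistently.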 The raw values are shown without normalisation. The numbers tell different reagents against one gene apart. Not stated in the record: the amount of reagent.

Aim: 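Fly regulators of androgen-dependent reporter output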 (primary screen)
Cells: Drosophila S2R+ cells
Knock-down reagent: long dsRNA against Drosophila genes
Time to read-out: 72 h (48 h, then 24 h hormone)
Treatment: synthetic androgen R1881 at 10 nM for 24 h
Detection: 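Firefly light from an androgen-responsive reporter and Renilla control light per well, raw and unnormalised, for each of two replicates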
Scale: firefly reporter light: higher = more light from androgen-responsive reporter; Renilla control light: higher = more constitutive control signal (cell number, transfection)
Active means: 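Hit when the log firefly-to-Renilla ratio dropped or increased by a fixed fold versus the mean of GFP or LacZ controls across duplicate plates; lowering cut given as 1.5 and as 3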
Meaning of the calls: active = hit: reporter lowered or raised; inactive = no hit

| Gene | dsRNA no. | firefly reporter light, replicate 1 | firefly reporter light, replicate 2 | Renilla control light, replicate 1 | Renilla control light, replicate 2 | activity call |
| --- | --- | --- | --- | --- | --- | --- |
| CG10516 | 1 | 2.38e5 | 2.07e5 | 1.67e6 | 1.50e6 | inactive |
| rho-5 | 1 | 6.15e5 | 8.16e5 | 1.53e6 | 1.87e6 | inactive |
| rho-5 | 2 | 3.74e5 | 3.17e5 | 5.76e5 | 5.57e5 | inactive |
| Ppcs | 1 | 69406 | 66279 | 4.82e5 | 5.20e5 | inactive |
| CG4733 | 1 | 1.99e5 | 2.13e5 | 2.07e6 | 2.43e6 | inactive |
| CG4733 | 2 | – | – | – | – | inactive |
| CG4733 | 3 | – | – | – | – | inactive |
| T48 | 1 | 1.39e5 | 1.45e5 | 1.83e6 | 2.02e6 | inactive |
| laf | 1 | 1.09e5 | 1.05e5 | 1.67e6 | 1.61e6 | inactive |
| CG31191 | 1 | 2.30e5 | 2.96e5 | 2.84e6 | 2.66e6 | inactive |
| Mnn1 | 1 | 1.98e5 | 1.70e5 | 1.40e6 | 1.61e6 | inactive |
| CG15696 | 1 | 2.11e5 | 2.30e5 | 2.61e6 | 3.49e6 | inactive |
| CG15696 | 2 | 7.52e5 | 6.98e5 | 6.12e5 | 6.86e5 | inactive |
| CG31517 | 1 | 99734 | 1.04e5 | 1.81e5 | 1.88e5 | inactive |
| CG30371 | 1 | 2.50e5 | 1.81e5 | 1.46e6 | 1.41e6 | inactive |
| niki | 1 | 2.60e5 | 3.39e5 | 3.03e6 | 2.90e6 | inactive |
| niki | 2 | – | – | – | – | inactive |
| niki | 3 | – | – | – | – | inactive |
| 4E-T | 1 | 75390 | 51803 | 5.18e5 | 3.45e5 | inactive |
| 4E-T | 2 | 2.74e5 | 3.78e5 | 2.93e6 | 2.35e6 | inactive |
| GstD8 | 1 | 1.84e5 | 2.09e5 | 2.85e6 | 2.83e6 | inactive |
| GstD8 | 2 | 6.05e5 | 3.04e5 | 4.66e5 | 4.58e5 | inactive |
| Mur89F | 1 | 72917 | 96897 | 1.57e6 | 2.26e6 | inactive |
| Mur89F | 2 | 6.66e5 | 1.00e6 | 1.24e6 | 1.33e6 | inactive |

Single entries from the entries so far:
Under “activity call”, 4E-T #1 reads inactive
Entry of CG4733 #3 under “activity call”: inactive
GstD8 #1, firefly reporter light, replicate 1 → 1.84e5
